PubChem BioAssay AID1508588, Peter MacCallum Cancer Centre, 2020
This is an unselected part of about 18,000 deposited reagents. Over the whole deposit, 790 (4.4%) got an active call. 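Calls rest on a combination of fold-change classes in drug and vehicle arms, not all shown here.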

Aim: 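Genome-wide search for knock-downs that heighten vemurafenib action in melanoma cells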 (primary screen)
Cells: human WM266.4 melanoma cells (BRAF V600 mutant)
Reagent: siRNA pool against human genes, 40 nM
Duration: 96 h from transfection to read-out
Challenge: vemurafenib 300 nM (about IC25), added 48 h after transfection, for 48 h; comparison arm got DMSO vehicle only
Read-out: 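Ratios to non-targeting siRNA for cell gain, counted as DAPI nuclei after minus before drug and averaged over two replicates, and for absorbance-read medium lactate per cell; both binned into fold-change classes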
Scale: cell gain with vemurafenib: higher = more cell gain than with non-targeting siRNA; lactate per cell with vemurafenib: higher = more lactate made per cell
Hit rule: 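Enhancement is called by pairing each knock-down's vehicle-arm and drug-arm fold-change classes for viability or glycolysis; which class combinations qualify is not given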
Meaning of the calls: active = enhances vemurafenib effect; inactive = no enhancement seen

gene symbol | cell gain with vemurafenib | lactate per cell with vemurafenib | call
TCL1A | 0.69 | 0.8 | inactive
LINC01588 | 0.2 | 0.22 | inactive
CROCC | 0.51 | 0.61 | inactive
CACNA1D | 0.71 | 1.12 | inactive
SGK3 | 0.47 | 1.64 | inactive
DPH1 | 0.74 | 1.19 | inactive
PTGFRN | 0.34 | 0.99 | inactive
ELOVL2 | 0.56 | 1 | inactive
HOXB13 | 0.1 | 0.84 | inactive
LRRK2 | 0.57 | 0.69 | inactive
ZSCAN22 | 0.28 | 1.27 | inactive
BICD2 | 0.36 | 0.8 | inactive
FAAH | 0.75 | 0.44 | active
PPTC7 | 0.57 | 1.22 | inactive
CTTNBP2 | 0.55 | 0.82 | inactive
VSIG8 | 0.79 | 1.06 | inactive
C1orf226 | 0.66 | 0.86 | inactive
ZDHHC20 | 0.73 | 0.76 | inactive
BLID | 0.24 | 0.79 | inactive
PDZD2 | 0.5 | 0.45 | active
SACK1A | 0.1 | 2.95 | inactive
EDAR | 1.01 | 0.82 | inactive
SUMO3 | 0.67 | 0.8 | inactive
CELSR2 | 0.59 | 0.84 | inactive
FSTL5 | 0.85 | 0.6 | inactive
LRRC8C | 0.34 | 1.82 | inactive
BIN2 | 0.94 | 1.07 | inactive
RP9 | 0.78 | 0.75 | inactive
PORCN | 0.8 | 0.5 | inactive
PDLIM7 | 0.58 | 0.75 | inactive
RASA1 | 0.25 | 1.35 | inactive
SLC7A8 | 0.9 | 1.4 | inactive
GSTM1 | 0.72 | 0.83 | inactive
TTC21B | 0.92 | 0.82 | inactive
ZCRB1 | 0.52 | 1.61 | inactive
STOML2 | 0.25 | 1.21 | inactive
LDAF1 | 0.37 | 1.23 | inactive
FAM3A | 0.55 | 1.19 | inactive
CASKIN1 | 0.93 | 0.89 | inactive
KIAA0513 | 0.88 | 0.9 | inactive
OR5AC2 | 0.92 | 0.66 | inactive
DCTN6 | 0.33 | 0.55 | inactive
GDF10 | 0.77 | 0.73 | inactive
CDC14A | 0.82 | 0.55 | inactive
EZH1 | 0.36 | 1.84 | inactive
PHKA2 | 0.69 | 0.94 | inactive
GMPS | 0.69 | 0.6 | inactive
SUPT20H | 0.05 | 2.17 | inactive
ABHD17B | 0.59 | 0.56 | active
NTM | 0.28 | 0.67 | inactive
STAG3 | 1.22 | 0.82 | inactive
ZNF195 | 0.93 | 1.15 | inactive
OR2G2 | 0.4 | 0.4 | inactive
NRG3 | 0.54 | 0.84 | inactive
GDF11 | 0.86 | 0.9 | inactive
IRX4 | 0.52 | 0.96 | inactive
CHCHD4 | 0.64 | 0.52 | inactive
REC114 | 0.95 | 0.48 | active
WDR89 | 0.74 | 0.99 | inactive
OR6K2 | 1.04 | 0.44 | inactive
STK10 | 0.74 | 0.42 | inactive
MICB | 1.06 | 0.87 | inactive
NOP56 | 0.39 | 1.29 | inactive
SLC33A1 | 0.75 | 0.74 | inactive
SPATA20 | 0.36 | 2.23 | inactive
ARG2 | 0.36 | 2.01 | inactive
TNFRSF1B | 0.35 | 1.33 | inactive
MRPL11 | 0.56 | 0.96 | inactive
ESRRB | 0.32 | 1 | inactive
CDKN1A | 0.91 | 0.68 | inactive
FAIM2 | 1.08 | 0.83 | inactive
C3orf70 | 0.8 | 0.41 | inactive
IFITM2 | 0.24 | 2.31 | inactive
TRMT1L | 0.96 | 0.62 | inactive
MAP3K20 | 1.37 | 0.6 | inactive
GPR101 | 0.07 | 0.18 | active
CLSTN3 | 0.22 | 1.9 | inactive
LUZP1 | 0.59 | 0.3 | inactive
PCDHGA12 | 0.87 | 0.58 | inactive
OR8J3 | 0.37 | 1.28 | inactive
RBM3 | 0.54 | 0.95 | inactive
OXSM | 0.29 | 1.33 | inactive
SGCZ | 0.63 | 0.87 | inactive
NKX6-3 | 0.55 | 0.97 | inactive

6 entries from above in another layout:
| gene symbol | cell gain with vemurafenib | lactate per cell with vemurafenib | call |
| --- | --- | --- | --- |
| DCTN6 | 0.33 | 0.55 | inactive |
| GDF10 | 0.77 | 0.73 | inactive |
| CDC14A | 0.82 | 0.55 | inactive |
| EZH1 | 0.36 | 1.84 | inactive |
| PHKA2 | 0.69 | 0.94 | inactive |
| GMPS | 0.69 | 0.6 | inactive |
